# Primary screen of a compound library

Chains of the proteins cited; added tags and fusions are not shown. Residues count along the entry.
UniProt P9WPC5, whole entry: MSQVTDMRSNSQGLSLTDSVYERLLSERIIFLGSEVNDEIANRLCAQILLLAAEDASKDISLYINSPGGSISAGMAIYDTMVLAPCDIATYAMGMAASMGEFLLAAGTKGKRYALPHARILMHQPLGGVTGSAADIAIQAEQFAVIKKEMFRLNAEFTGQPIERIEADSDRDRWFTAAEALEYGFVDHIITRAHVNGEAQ
UniProt P9WPC3, whole entry partner: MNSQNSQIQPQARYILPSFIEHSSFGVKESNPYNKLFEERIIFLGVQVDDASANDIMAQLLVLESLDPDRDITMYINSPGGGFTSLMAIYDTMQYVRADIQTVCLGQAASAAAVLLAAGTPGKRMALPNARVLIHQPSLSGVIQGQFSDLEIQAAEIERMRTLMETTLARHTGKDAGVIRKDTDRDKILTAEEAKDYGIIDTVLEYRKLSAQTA
UniProt P9WFT3, whole entry: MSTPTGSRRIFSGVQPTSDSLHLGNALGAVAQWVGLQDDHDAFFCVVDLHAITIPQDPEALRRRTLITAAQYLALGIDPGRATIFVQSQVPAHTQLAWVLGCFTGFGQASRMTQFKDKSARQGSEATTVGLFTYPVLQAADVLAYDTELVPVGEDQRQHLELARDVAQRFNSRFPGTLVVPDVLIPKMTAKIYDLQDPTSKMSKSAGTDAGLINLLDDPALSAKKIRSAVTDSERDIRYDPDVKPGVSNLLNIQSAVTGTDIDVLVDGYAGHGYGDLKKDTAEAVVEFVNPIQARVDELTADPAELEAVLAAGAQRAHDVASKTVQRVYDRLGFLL
UniProt Q8IDJ8, 1-583: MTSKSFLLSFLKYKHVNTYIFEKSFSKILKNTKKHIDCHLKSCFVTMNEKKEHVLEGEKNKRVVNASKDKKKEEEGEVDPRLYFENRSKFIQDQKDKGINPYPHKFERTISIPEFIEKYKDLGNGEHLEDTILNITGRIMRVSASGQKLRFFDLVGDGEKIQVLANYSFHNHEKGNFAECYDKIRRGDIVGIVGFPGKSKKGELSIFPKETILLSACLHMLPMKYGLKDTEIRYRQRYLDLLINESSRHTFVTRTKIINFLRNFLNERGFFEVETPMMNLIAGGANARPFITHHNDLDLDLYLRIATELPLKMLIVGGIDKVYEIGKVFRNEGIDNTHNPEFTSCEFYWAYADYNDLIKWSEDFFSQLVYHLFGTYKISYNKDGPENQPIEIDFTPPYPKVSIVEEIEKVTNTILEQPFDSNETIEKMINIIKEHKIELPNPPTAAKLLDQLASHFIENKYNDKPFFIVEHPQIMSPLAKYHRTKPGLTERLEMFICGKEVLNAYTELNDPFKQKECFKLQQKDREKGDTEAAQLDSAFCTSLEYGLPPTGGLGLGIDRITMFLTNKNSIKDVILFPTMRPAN

Measurements from “University of Dundee, Small-Polar-MMV Screening Library” (2021), ChEMBL document CHEMBL3988442.

Each number is a percent effect as filed. The controls that fix the scale are not given in the record; negative values are as filed. Compounds were drawn at random from those tested, without regard to their results. A dash means the value is not listed here; it may have been measured.

ClpP1P2: 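Protease assay of ClpP1P2, read by the AMC dye that it sets free. Target: ClpP1P2, Mycobacterium tuberculosis (UniProt P9WPC5 and UniProt P9WPC3). Tested at 50 µM. Higher reads as stronger inhibition, judged from the few compounds that gave an IC50. Most other retested compounds had strongly negative values. About 69,000 compounds were tested under these conditions; 0.015% (about 10) showed 50% or more at least once.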
MtTrpRS: 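Tryptophan-tRNA ligase, Mycobacterium tuberculosis (UniProt P9WFT3). Enzyme assay of tryptophanyl-tRNA synthetase; the read-out is not stated. Tested at 10 µM. Direction is not recorded; retested compounds ran higher, which suggests that high means inhibition. Of about 65,000 compounds tested this way, about 64 (0.098%) reached 50% or more in at least one test.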
PfKRS1: 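Enzyme assay of the cytosolic lysyl-tRNA synthetase in 384-well plates, read by luminescence. Target: Lysine-tRNA ligase, Plasmodium falciparum 3D7 (UniProt Q8IDJ8). Concentration: 30 µM. Higher reads as stronger inhibition, judged from the few compounds that gave an IC50. Size under these conditions: about 69,000 compounds, about 49 of them at 50% or above in at least one test.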

| SMILES | ClpP1P2 | MtTrpRS | PfKRS1 |
|---|---|---|---|
| `CC(C)c1nnc2sc(CC3CN(Cc4ccccc4)CCO3)nn12` (stereo unspecified) | -4.5 | 1.607 | 1.894 |
| `Cc1ccc(C(NC(=O)C2CC2)c2cccc(S(C)(=O)=O)c2)cc1` (stereo unspecified) | 3.077 | 1.44 | 0.2913 |
| `C=C(C)COc1ccccc1CN1CCC(NC(C)=O)CC1` | -14.85 | 5.638 | 0.815 |
| `CC(=O)NCc1cc2n(n1)CCN(Cc1cccc(Cl)c1Cl)C2` | 8.174 | -1.224 | 9.073 |
| `Cc1occc1C(=O)NCC(=O)N1CCCC(c2ccccc2)CC1` (stereo unspecified) | -5.16 | 1.1 | -1.622 |
| `O=C(c1cnc(-c2ccco2)s1)N1CCOc2ncccc21` | 13.16 | -0.9025 | 5.966 |
| `C[C@@H](NCc1cccc(Cl)c1)c1onc(-c2ccc(F)cc2)c1C(=O)O` | -11.5 | 4.348 | 8.644 |
| `CN(C)Cc1nc(C2(NC(=O)Nc3ccccc3)CCCC2)no1` | -11.48 | 1.426 | 1.173 |
| `Cc1ccc(-c2ncc(C(=O)NS(C)(=O)=O)s2)c(C)c1` | -14 | -2.684 | -1.277 |
| `CN1CCN(Cc2cccnc2)C(=O)C12CCN(Cc1ccco1)CC2` | -1.03 | -1.163 | 3.265 |
| `N#Cc1cccc(Oc2ccc(CN3CCCC3)cc2Cl)n1` | -0.1963 | -1.026 | -1.562 |
| `CCC(=O)Nc1ccc(F)c(S(=O)(=O)NC(C)(C)C)c1` | 4.523 | -0.3119 | -3.557 |
| `O=C(c1cscn1)N1CCC2(CCN(Cc3nccs3)CC2)CC1` | 5.772 | -7.051 | -1.349 |
| `Cc1cccc(CN2CCc3c(CNC(=O)CC#N)nn(C)c3C2)n1` | -5.768 | -8.251 | 7.658 |
| `COc1ccc(OCCC(=O)N2CCCC2Cn2cccn2)cc1` (stereo unspecified) | -30.79 | -5.643 | -0.4606 |
| `CC(C)c1ncncc1C(=O)N1CCN(Cc2cscn2)CC1` | 0.7236 | -1.069 | -12.95 |
| `Cc1cc(N2CCN(Cc3nccn3C)CC2)cc(C)n1` | 5.811 | 3.602 | -2.24 |
| `CC(NC(=O)Nc1cccnc1N1CCCC1)c1nncn1C` (stereo unspecified) | 7.804 | -1.017 | 5.852 |
| `NC(=O)C1CCN(c2nccc(-c3c[nH]nc3C3CCCCC3)n2)CC1` | 3.811 | - | 3.786 |
| `CCS(=O)(=O)NC(CCSC)C(=O)Nc1ccccc1C` (stereo unspecified) | -7.739 | 3.213 | 6.748 |
| `CC1CC2(CCN(C(=O)c3c[nH]cn3)CC2)c2ccccc21` (stereo unspecified) | -33.3 | - | 3.041 |
| `COc1ccc(CNC(C)Cn2cccn2)cc1F` (stereo unspecified) | 19.46 | 3.603 | 1.246 |
| `CCCNC(=O)C1CCCN(Cc2ccc(-n3cncn3)c(C)c2)C1` (stereo unspecified) | -1.217 | -6.956 | -0.8579 |
| `COCCOCC(=O)Nc1ccc(Br)cc1F` | -2.761 | 0.5297 | 3.54 |
| `O=C(OCC1CCCN(C(=O)c2ccccc2)C1)c1cscn1` (stereo unspecified) | -5.69 | 0 | -6.13 |
| `CCC1=N[C@@]2(CC[C@@H]3CN(S(C)(=O)=O)C[C@@H]32)C(=O)N1CC(C)C` | -9.304 | -0.3984 | 0.7933 |
| `Cc1ccc(CN2C[C@@H](c3ccccc3)[C@@]3(CCNC3=O)C2)o1` | -0.3844 | -2.434 | 3.046 |
| `Cc1ccnn1CCC(=O)N1CCOC(CCc2ccccc2)C1` (stereo unspecified) | -1.931 | -5.717 | 2.175 |
| `CCc1cnc(N2C[C@H]3C[C@H](C(=O)NC)[C@@H](C2)O3)nc1` | -3.135 | -4.368 | 1.642 |
| `Cc1nnc(C2Cc3ccccc3CN2Cc2nc(C3CC3)no2)o1` (stereo unspecified) | -6.389 | -2.477 | 4.078 |
| `CC(=O)c1ccc(NC(=O)N(CCN(C)C)Cc2ccc(C)s2)cc1` | -5.728 | 0.361 | 4.539 |
| `Cc1cc(C)cc(CCC(=O)N2CCN(c3cc(C)nc(N)n3)CC2)c1` | 2.513 | -2.517 | -0.3717 |
| `CNC(=O)C1Cc2ccccc2CN1CCC#N` (stereo unspecified) | 6.791 | -0.455 | 1.278 |
| `O=S(=O)(c1ccc(Cl)s1)N1CCCC(c2ncc[nH]2)C1` (stereo unspecified) | 0.2021 | -7.216 | 1.019 |
| `COCCN1C(=O)CO[C@H]2CN(Cc3cccc(OC)c3F)C[C@@H]21` | -0.7738 | - | 4.984 |
| `CC(CN1CCOCC1)OC(=O)c1cccc2cn[nH]c12` (stereo unspecified) | -4.625 | 1.636 | 3.605 |
| `CC(C)c1cc(C(=O)NCCc2nc(-c3cccnc3)n[nH]2)[nH]n1` | -8.513 | 17.69 | -1.809 |
| `O=c1cc(Cn2ccnc2)nc2n1CCCN(Cc1cccs1)C2` | -5.589 | 3.873 | -5.267 |
| `O=C(c1ccoc1)N1CCCCC1c1nc[nH]n1` (stereo unspecified) | -5.344 | -3.13 | 2.208 |
| `c1ccc(-c2nc(CNC3CCc4ncnn4C3)no2)cc1` (stereo unspecified) | -27.09 | -6.383 | 2.289 |

Some entries from above, unchanged:

{"smiles": "CCC1=N[C@@]2(CC[C@@H]3CN(S(C)(=O)=O)C[C@@H]32)C(=O)N1CC(C)C", "ClpP1P2": -9.304, "MtTrpRS": -0.3984, "PfKRS1": 0.7933}
{"smiles": "CC(C)c1ncncc1C(=O)N1CCN(Cc2cscn2)CC1", "ClpP1P2": 0.7236, "MtTrpRS": -1.069, "PfKRS1": -12.95}